In one assay the test system is FCA induced edema. Put plainly: FCA induced edema (paw volume). It counts as in vivo, rat. Conditions: FCA/Compound 2, 30 mg/kg p.o., individual animals. The protocol:
Compound 2 was evaluated in the rat Freund's complete adjuvant (FCA) model of inflammatory pain. The rat Freund's complete adjuvant (FCA) intraplantar model of inflammatory pain produces behaviors similar to those observed in patients and has been widely used to assess novel pharmacological treatments (Lam et al., 2008, J Ethnopharmacol. 120:44-50). The positive control was celecoxib (TRC, Montreal), and the negative control was vehicle (0.5% methyl cellulose, in phosphate buffered saline). […] The Hargreaves apparatus was obtained from Ugo Basile, Italy. The Freund's complete adjuvant was obtained from Sigma, St. Louis, and the electronic von frey was obtained from Stoelting, Ill. For this assay, paw withdrawal latency to a thermal stimulus was assessed using a radiant heat source (Ugo Basile, Italy) aimed at the plantar surface of the left hind paw (Hargreaves test; […] Paw withdrawal thresholds to a non-noxious tactile stimulus was assessed using an electronic von Frey apparatus that presented an increasing mechanical force to the plantar surface of the hind paw. Paw volume was measured by displacement of water and assuming a tissue density equal to that of water. […] Celecoxib (30 mg/kg p.o.) served as the positive control. […] After induction of anesthesia, the injection site was prepared in a sterile manner and 100 μl of a 50% suspension of FCA injected. After injection, animals were weighed and allowed to recover before being returned to their home cages. Statistical significance was determined on untransformed data using a two-way analysis of variance (Graphpad Prism, NC). Significant main effects were analyzed further by subsequent Bonferronni post-hoc test. The level of significance was set at p<0.05. Data are shown as mean±S.E.M. (with an asterisk to denote significance as compared to vehicle treated controls).

The test system of assay [1] is spinal nerve ligation induced tactile allodynia. Put plainly: Spinal nerve ligation (SNL, Chung model) induced tactile allodynia (von Frey filaments). It counts as in vivo, rat. The settings on record: compound 2 50 mg/kg p.o., individual animals.

Molecules are shown by their SMILES. Where “and” joins values, the source holds several entries; their conditions need not be identical. Equal entries are not always repeated. This continues a long series; more values of the same kind are listed elsewhere.

For the compound `CC1(C)SC(Nc2ccccc2O)=N[C@@H]1C(=O)O` [Compound 2, (R)-2-(2-hydroxyphenylamino)-thiazoline-5,5-dimethyl-4-carboxylic acid], the “Paw volume” value with FCA induced edema (1 hr (D2)) was 2.5 mL and 2.7 mL (3×) and 2.6 mL and 2.9 mL and 2.4 mL and 3.2 mL; in the assay with FCA induced edema (1 hr), 3 mL and 2.8 mL (2×) and 2.9 mL and 2.5 mL and 3.1 mL and 2.7 mL; in the assay with FCA induced edema (3 hrs (D2)), 2.5 mL and 2.7 mL (2×) and 2.6 mL and 2.8 mL and 2.9 mL and 2.4 mL and 3 mL; in the assay on FCA induced edema (3 hrs) it was 2.8 mL (2×) and 2.9 mL and 2.7 mL (2×) and 3 mL and 2.6 mL and 3.2 mL; in the assay on FCA induced edema (Pre-Drug (D2)) it was 2.4 mL (2×) and 2.7 mL (2×) and 2.6 mL and 2.8 mL and 2.9 mL and 3.1 mL. Also, the “Paw withdrawal threshold” value in assay [1] (FIG. 24, fasted animals, Pre-Sx) is 15 g; in assay [1] (FIG. 24, fasted, 3 hrs (D1), 50 mg/kg), 4.23 g and 10.04 g and 6.64 g (2×) and 3.13 g and 5.04 g (2×) and 1.56 g; in assay [1] (FIG. 24, fasted, 3 hrs (D3), 50 mg/kg), 6.58 g (3×) and 4.47 g and 3.13 g and 4.25 g and 3.67 g and 4.4 g; in assay [1] (FIG. 24, fasted, 5 hrs (D1), 50 mg/kg) it was 5.04 g (2×) and 7.31 g and 3.55 g and 1.85 g and 3.72 g and 3.67 g and 3.13 g; in assay [1] (FIG. 24, fasted, 5 hrs (D3), 50 mg/kg), 2.81 g (2×) and 4.25 g (2×) and 6.66 g and 1.85 g and 6.64 g (2×); in assay [1] (FIG. 24, fasted, Pre-Drug (D1), 50 mg/kg), 6.58 g and 4.4 g and 2.75 g and 1.4 g and 2.81 g (2×) and 5.04 g and 1.18 g. Moreover, the “Paw withdrawal threshold” value in assay [1] (FIG. 24, fasted, Pre-Drug (D3), 50 mg/kg) was 4.25 g and 8.44 g and 2.81 g and 1.4 g and 4.98 g and 6.4 g and 2 g and 3.33 g; in assay [1] (non-fasted, 1 hr (D2), 50 mg/kg), 6.66 g and 1.18 g and 2.37 g; in assay [1] (non-fasted, 1 hr (D3), 50 mg/kg) it was 0.78 g and 6.58 g and 3.67 g and 4.72 g and 2.81 g and 5.57 g and 1.85 g and 1.19 g; in assay [1] (non-fasted, 3 hrs (D2), 50 mg/kg) it was 1.65 g and 4.47 g and 2.81 g (2×) and 3.58 g and 2.65 g and 6.58 g and 3.33 g; in assay [1] (non-fasted, 3 hrs (D3), 50 mg/kg) it was 1.18 g and 1.85 g (2×) and 5.57 g and 2.81 g and 4.72 g and 3.13 g (2×).

These data come from patent publication US9102636B2, “Analgesic compounds, compositions, and uses thereof” (Galleon Pharmaceuticals, Inc., priority 2010, dated 2015).
